# This is one part of the list.
# Sequences of proteins named here, by UniProt entry; tags and fusion partners are left off. A change or cut given only in a name is not applied to a line headed by its entry.
# UniProt Q9NRX4: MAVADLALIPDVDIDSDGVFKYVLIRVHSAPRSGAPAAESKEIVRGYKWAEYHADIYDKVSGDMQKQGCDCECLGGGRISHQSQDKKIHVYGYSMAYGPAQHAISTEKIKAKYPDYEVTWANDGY
# UniProt Q9GZP4: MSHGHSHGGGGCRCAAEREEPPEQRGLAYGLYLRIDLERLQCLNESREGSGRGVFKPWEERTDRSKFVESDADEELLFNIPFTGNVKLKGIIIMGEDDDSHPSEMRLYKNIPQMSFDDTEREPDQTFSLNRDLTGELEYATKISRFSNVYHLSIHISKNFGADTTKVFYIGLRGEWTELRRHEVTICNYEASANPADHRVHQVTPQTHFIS
# UniProt Q9Y263: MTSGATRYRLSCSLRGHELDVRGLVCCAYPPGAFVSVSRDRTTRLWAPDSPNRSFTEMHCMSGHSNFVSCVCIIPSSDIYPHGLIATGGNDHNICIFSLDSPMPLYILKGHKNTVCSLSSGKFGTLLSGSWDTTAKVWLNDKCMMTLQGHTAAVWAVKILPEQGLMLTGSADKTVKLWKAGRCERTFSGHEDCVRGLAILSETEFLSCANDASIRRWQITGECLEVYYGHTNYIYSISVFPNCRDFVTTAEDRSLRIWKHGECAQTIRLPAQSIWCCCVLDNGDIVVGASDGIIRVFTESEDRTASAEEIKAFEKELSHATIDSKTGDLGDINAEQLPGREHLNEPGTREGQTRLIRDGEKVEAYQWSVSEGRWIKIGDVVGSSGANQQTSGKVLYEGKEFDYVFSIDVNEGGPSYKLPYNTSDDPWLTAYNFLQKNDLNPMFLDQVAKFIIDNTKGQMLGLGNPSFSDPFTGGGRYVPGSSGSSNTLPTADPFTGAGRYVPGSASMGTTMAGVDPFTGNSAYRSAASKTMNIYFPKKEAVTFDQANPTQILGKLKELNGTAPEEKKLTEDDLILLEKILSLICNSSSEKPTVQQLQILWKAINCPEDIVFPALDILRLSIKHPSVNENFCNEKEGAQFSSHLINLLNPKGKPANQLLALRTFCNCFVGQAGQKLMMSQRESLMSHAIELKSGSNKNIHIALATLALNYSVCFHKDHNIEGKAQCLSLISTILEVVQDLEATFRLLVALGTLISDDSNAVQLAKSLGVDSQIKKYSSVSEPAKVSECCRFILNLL
# UniProt Q8IV08: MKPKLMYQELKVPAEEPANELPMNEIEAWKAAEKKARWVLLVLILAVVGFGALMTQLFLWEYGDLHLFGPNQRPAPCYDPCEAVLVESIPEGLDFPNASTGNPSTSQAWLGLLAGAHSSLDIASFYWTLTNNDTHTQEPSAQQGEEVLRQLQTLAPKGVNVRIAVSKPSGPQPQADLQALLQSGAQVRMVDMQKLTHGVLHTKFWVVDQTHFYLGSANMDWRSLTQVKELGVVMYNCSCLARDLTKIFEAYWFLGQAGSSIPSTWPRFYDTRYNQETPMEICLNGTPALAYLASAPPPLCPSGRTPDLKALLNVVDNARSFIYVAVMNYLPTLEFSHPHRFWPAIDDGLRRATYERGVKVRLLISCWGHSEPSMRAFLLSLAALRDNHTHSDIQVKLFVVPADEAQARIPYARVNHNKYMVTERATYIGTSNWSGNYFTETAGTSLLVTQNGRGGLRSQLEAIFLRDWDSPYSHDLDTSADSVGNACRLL
# UniProt Q13526, whole entry, looked up: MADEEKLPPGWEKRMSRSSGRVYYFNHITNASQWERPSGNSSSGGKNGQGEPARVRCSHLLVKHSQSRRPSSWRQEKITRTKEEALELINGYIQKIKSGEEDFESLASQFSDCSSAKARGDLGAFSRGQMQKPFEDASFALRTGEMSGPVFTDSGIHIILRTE
# UniProt P46019: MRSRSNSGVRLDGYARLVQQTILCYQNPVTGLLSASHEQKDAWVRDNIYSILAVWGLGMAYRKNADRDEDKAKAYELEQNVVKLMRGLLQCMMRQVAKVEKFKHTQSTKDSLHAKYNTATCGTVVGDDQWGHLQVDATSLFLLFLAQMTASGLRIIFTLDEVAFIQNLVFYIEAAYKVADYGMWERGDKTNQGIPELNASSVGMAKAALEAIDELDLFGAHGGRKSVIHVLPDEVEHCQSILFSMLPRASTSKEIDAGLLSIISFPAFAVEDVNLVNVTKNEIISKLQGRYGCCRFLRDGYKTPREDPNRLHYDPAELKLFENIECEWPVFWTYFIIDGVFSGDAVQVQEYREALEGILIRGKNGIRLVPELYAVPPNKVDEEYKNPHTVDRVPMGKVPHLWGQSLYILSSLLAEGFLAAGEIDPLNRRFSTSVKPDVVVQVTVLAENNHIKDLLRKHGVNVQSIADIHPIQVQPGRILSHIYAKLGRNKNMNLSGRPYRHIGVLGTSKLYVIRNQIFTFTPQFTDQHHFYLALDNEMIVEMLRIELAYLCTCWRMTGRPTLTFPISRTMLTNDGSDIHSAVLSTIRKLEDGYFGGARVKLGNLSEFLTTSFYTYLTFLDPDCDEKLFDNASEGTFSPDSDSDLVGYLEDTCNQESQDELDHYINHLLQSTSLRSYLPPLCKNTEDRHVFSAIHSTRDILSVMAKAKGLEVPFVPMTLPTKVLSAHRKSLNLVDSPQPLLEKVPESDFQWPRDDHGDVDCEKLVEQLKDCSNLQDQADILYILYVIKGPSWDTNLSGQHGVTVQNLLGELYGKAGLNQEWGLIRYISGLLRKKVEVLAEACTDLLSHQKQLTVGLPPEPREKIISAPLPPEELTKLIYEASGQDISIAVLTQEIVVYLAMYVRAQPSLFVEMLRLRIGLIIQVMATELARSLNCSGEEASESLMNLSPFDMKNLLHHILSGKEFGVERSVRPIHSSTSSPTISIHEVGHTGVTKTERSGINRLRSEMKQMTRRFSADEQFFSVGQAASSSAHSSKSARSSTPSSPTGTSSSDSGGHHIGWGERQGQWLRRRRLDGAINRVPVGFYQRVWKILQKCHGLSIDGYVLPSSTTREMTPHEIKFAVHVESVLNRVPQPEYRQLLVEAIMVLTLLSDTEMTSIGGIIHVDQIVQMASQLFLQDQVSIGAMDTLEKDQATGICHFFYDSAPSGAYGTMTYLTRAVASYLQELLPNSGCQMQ
# UniProt P30613: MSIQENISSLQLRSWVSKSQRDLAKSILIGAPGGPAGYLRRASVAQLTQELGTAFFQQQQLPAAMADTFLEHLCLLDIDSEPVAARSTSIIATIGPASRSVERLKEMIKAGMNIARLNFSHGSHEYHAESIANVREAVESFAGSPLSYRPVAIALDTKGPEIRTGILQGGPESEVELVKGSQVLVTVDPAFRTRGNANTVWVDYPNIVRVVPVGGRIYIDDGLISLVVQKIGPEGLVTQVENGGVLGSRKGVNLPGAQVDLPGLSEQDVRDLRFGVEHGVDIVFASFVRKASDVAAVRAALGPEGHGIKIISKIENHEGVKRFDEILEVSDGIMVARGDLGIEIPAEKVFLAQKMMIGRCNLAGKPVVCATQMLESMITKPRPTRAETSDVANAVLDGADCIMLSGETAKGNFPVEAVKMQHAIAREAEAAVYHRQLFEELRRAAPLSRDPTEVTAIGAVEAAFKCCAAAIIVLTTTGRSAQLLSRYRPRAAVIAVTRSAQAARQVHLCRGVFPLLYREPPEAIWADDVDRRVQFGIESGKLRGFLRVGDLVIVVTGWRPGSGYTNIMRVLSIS
# UniProt Q9Y2I7: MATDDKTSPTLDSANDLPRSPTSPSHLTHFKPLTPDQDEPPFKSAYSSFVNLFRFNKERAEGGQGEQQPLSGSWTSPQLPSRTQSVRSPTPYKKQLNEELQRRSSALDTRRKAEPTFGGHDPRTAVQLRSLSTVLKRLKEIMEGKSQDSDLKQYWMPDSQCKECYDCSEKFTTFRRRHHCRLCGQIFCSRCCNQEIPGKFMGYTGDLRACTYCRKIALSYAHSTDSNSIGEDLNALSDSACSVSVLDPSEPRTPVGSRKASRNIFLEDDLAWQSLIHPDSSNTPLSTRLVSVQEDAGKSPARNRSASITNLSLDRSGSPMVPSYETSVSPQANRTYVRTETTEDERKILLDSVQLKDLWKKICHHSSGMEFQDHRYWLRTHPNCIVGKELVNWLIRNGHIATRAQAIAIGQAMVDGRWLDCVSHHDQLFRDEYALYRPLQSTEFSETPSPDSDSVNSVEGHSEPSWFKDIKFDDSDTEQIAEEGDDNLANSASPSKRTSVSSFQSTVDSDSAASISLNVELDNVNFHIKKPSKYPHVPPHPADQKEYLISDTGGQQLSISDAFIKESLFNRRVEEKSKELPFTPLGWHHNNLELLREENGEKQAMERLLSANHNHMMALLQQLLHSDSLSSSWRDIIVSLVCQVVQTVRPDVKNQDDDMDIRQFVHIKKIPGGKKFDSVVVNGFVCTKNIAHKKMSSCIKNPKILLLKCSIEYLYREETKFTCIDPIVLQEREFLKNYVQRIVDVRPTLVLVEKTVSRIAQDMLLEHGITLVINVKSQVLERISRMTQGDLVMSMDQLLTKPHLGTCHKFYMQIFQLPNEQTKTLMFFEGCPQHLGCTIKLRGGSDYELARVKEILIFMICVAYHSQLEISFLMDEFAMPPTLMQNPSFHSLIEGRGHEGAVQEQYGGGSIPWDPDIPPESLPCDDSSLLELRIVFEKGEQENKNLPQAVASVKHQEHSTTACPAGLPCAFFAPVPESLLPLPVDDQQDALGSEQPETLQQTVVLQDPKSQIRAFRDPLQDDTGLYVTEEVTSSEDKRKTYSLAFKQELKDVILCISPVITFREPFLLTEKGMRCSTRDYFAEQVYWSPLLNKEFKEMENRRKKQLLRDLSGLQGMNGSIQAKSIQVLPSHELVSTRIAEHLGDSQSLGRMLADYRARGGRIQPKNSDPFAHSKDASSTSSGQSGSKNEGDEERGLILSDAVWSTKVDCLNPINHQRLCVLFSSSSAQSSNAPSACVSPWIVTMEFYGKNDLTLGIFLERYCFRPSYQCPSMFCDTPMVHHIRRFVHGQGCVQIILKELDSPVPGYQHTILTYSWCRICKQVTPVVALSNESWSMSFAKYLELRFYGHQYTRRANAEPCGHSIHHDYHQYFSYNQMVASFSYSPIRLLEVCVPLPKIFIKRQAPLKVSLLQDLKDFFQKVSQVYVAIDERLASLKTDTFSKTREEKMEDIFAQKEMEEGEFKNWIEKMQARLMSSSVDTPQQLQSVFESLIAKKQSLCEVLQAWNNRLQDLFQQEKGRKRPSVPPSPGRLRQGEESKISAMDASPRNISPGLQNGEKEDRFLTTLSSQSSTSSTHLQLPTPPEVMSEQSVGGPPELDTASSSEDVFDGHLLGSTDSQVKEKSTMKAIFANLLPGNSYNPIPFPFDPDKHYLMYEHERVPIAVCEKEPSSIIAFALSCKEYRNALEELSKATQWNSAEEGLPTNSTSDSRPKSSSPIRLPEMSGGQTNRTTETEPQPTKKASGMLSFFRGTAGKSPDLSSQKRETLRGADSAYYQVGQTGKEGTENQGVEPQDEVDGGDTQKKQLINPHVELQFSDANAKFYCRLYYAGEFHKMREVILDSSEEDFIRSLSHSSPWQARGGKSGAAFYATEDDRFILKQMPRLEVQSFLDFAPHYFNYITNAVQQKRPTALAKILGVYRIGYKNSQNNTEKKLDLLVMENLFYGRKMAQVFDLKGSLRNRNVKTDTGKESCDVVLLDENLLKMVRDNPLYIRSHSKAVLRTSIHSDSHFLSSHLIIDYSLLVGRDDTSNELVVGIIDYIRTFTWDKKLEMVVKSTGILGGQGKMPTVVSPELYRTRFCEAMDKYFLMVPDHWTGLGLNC
# UniProt Q96S99: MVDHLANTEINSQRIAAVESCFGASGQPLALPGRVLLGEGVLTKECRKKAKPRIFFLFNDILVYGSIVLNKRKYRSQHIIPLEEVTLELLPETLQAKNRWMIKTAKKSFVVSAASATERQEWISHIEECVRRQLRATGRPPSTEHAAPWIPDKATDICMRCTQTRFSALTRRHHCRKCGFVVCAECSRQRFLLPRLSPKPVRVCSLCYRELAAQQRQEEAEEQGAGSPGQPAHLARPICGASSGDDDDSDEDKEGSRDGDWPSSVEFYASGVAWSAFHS
# UniProt P14618, whole entry, looked up: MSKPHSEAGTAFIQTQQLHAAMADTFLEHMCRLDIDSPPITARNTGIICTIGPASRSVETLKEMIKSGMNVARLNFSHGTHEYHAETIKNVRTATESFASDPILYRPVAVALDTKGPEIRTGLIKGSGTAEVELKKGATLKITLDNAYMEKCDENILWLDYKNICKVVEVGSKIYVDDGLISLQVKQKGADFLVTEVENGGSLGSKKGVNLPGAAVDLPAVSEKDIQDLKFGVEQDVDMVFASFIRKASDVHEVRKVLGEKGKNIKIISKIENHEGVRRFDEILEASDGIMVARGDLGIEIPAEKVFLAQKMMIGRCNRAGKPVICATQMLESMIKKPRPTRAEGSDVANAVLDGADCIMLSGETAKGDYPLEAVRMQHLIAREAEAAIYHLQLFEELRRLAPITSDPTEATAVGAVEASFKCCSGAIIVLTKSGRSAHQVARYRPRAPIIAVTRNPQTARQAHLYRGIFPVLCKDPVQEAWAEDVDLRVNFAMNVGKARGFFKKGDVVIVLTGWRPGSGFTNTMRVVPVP
# Experiments:
# Test in all cases: log2 fold change, soluble protein after heating vs DMSO (PISA); higher = thermal stabilisation; K562 lysate, 10 uM; active = over 0.2 and 3.5 SD of the protein, either way, in both replicates (recomputed)
# vemurafenib = compound: CCCS(=O)(=O)Nc1ccc(F)c(C(=O)c2c[nH]c3ncc(-c4ccc(Cl)cc4)cc23)c1F [vemurafenib]
# Method in brief: (§1)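 The values are log-two fold changes in thermal stability compared with solvent controls and come from duplicates. They were obtained by TMTpro 16plex LC-MS/MS, with channel sums equalised, on the supernatant after 21,000xg for 90 min. That supernatant came from crude K562 extract at 1 mg/mL protein treated with 10 μM compound for 30 min, heated for 3 min across 48°C-58°C, pooled and brought to 0.5% NP-40 at 4°C.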
# [1] = compound: CCCS(=O)(=O)Nc1ccc(F)c(C(=O)c2c[nH]c3ncc(Cl)cc23)c1F
# Method in brief: as §1
# barasertib = compound: CCN(CCCOc1ccc2c(Nc3cc(CC(=O)Nc4cccc(F)c4)[nH]n3)ncnc2c1)CCOP(=O)(O)O [barasertib]
# Method in brief: as §1
# [2] = compound: CC[C@@H]1C(=O)N(C)c2cnc(Nc3ccc(C(=O)NC4CCN(C)CC4)cc3OC)nc2N1C1CCCC1
# Method in brief: as §1
# volasertib = compound: CC[C@@H]1C(=O)N(C)c2cnc(Nc3ccc(C(=O)N[C@H]4CC[C@H](N5CCN(CC6CC6)CC5)CC4)cc3OC)nc2N1C(C)C [volasertib]
# Method in brief: as §1
# [3] = compound: CCn1c(C(=O)N(C2CC2)C2CC2)cc2c3c(ncn3C)c(Nc3cc(C)n(C)n3)nc21
# Method in brief: as §1
# [4] = compound: CCn1cc(-c2ccnc3[nH]c(-c4cccc(CN(C)C)c4)cc23)c(-c2ccc(NC(=O)N(C)C)cc2)n1
# Method in brief: as §1
# [5] = compound: CN1CCC(CNc2ccc3ncc(-c4cccc(OC(F)(F)F)c4)n3n2)CC1
# Method in brief: as §1
# saracatinib = compound: CN1CCN(CCOc2cc(OC3CCOCC3)c3c(Nc4c(Cl)ccc5c4OCO5)ncnc3c2)CC1 [saracatinib]
# Method in brief: as §1
# sotrastaurin = compound: CN1CCN(c2nc(C3=C(c4c[nH]c5ccccc45)C(=O)NC3=O)c3ccccc3n2)CC1 [sotrastaurin]
# Method in brief: as §1
# alvocidib = compound: CN1CC[C@H](c2c(O)cc(O)c3c(=O)cc(-c4ccccc4Cl)oc23)[C@H](O)C1 [alvocidib]
# Method in brief: as §1
# Tubastatin A = compound: CN1CCc2c(c3ccccc3n2Cc2ccc(C(=O)NO)cc2)C1 [Tubastatin A]
# Method in brief: as §1
# [6] = compound: CNC(=O)C1=CC=CC=C1NC2=NC(=NC=C2Cl)NC3=C(C=C(C=C3)N4CCOCC4)OC
# Method in brief: as §1
# defactinib = compound: CNC(=O)c1ccc(Nc2ncc(C(F)(F)F)c(NCc3nccnc3N(C)S(C)(=O)=O)n2)cc1 [defactinib]
# Method in brief: as §1
# [7] = compound: CNc1nc(-c2ccc3c(N)n[nH]c3c2)cc(N2C[C@@H](C(=O)NC3CCCCC3)CC[C@H]2C)n1
# Method in brief: as §1
# encorafenib = compound: COC(=O)N[C@@H](C)CNc1nccc(-c2cn(C(C)C)nc2-c2cc(Cl)cc(NS(C)(=O)=O)c2F)n1 [encorafenib]
# Method in brief: as §1
# [8] = compound: COC(=O)[C@H](CCSC)NC(=O)C1=C(C=C(C=C1)NC[C@H](CS)N)C2=CC=CC=C2
# Method in brief: as §1
# alisertib = compound: COc1cc(Nc2ncc3c(n2)-c2ccc(Cl)cc2C(c2c(F)cccc2OC)=NC3)ccc1C(=O)O [alisertib]
# Method in brief: as §1
# [9] = compound: COc1cc2nc(-c3cc(F)ccc3O)nc(N[C@@H]3CNC[C@H]3C(C)(C)O)c2cc1OC
# Method in brief: as §1
# gefitinib = compound: COc1cc2ncnc(Nc3ccc(F)c(Cl)c3)c2cc1OCCCN1CCOCC1 [gefitinib]
# Method in brief: as §1
Target,log2 fold change (vemurafenib),log2 fold change [1],log2 fold change (barasertib),log2 fold change [2],log2 fold change (volasertib),log2 fold change [3],log2 fold change [4],log2 fold change [5],log2 fold change (saracatinib),log2 fold change (sotrastaurin),log2 fold change (alvocidib),log2 fold change (Tubastatin A),log2 fold change [6],log2 fold change (defactinib),log2 fold change [7],log2 fold change (encorafenib),log2 fold change [8],log2 fold change (alisertib),log2 fold change [9],log2 fold change (gefitinib)
PIGO (UniProt Q8TEQ8),inactive: -0.112,inactive: 0.109,inactive: 0.064,inactive: 0.013,inactive: -0.069,inactive: -0.081,inactive: -0.029,inactive: -0.043,inactive: -0.013,active: -0.499,inactive: 0.038,inactive: -0.112,inactive: -0.095,inactive: 0.046,inactive: 0.143,inactive: 0.019,inactive: -0.121,inactive: 0.061,inactive: -0.073,inactive: 0.013
PHPT1 (UniProt Q9NRX4),inactive: -0.056,inactive: -0.015,inactive: 0.012,inactive: -0.005,inactive: 0.03,inactive: 0.071,inactive: 0.056,inactive: -0.047,inactive: 0.006,inactive: -0.012,inactive: 0.06,inactive: 0.011,inactive: -0.004,inactive: -0.038,inactive: -0.034,inactive: -0.008,inactive: -0.083,inactive: -0.011,inactive: -0.007,inactive: -0.024
PI4KA (UniProt P42356),inactive: 0.005,inactive: 0.014,inactive: 0,inactive: 0.007,inactive: -0.064,inactive: 0.019,inactive: -0.069,inactive: 0.164,inactive: 0.016,inactive: 0.056,inactive: -0.006,inactive: -0.165,inactive: 0.035,inactive: 0.006,inactive: -0.029,inactive: 0.026,inactive: -0.005,inactive: 0.028,inactive: 0.019,inactive: 0
PITHD1 (UniProt Q9GZP4),inactive: 0.039,inactive: -0.023,inactive: -0.043,inactive: 0.1,inactive: 0.01,inactive: 0.002,inactive: -0.063,inactive: 0.064,inactive: 0.001,inactive: 0.022,inactive: -0.025,inactive: 0.045,inactive: -0.024,inactive: -0.034,inactive: 0.075,inactive: -0.033,inactive: -0.048,inactive: -0.028,inactive: 0.051,inactive: -0.008
PLAA (UniProt Q9Y263),inactive: -0.036,inactive: 0.01,inactive: 0.03,inactive: -0.027,inactive: -0.041,inactive: 0.018,inactive: -0.082,inactive: 0.069,inactive: 0.002,inactive: 0.035,inactive: -0.018,inactive: -0.04,inactive: -0.016,inactive: 0.003,inactive: -0.006,inactive: 0.011,inactive: -0.016,inactive: -0.002,inactive: -0.012,inactive: -0.04
PLD3 (UniProt Q8IV08),inactive: 0,inactive: 0.017,inactive: 0.001,inactive: 0.005,inactive: -0.004,inactive: -0.007,inactive: -0.106,inactive: 0.103,inactive: -0.083,inactive: -0.002,inactive: -0.017,inactive: 0.003,inactive: 0.008,inactive: -0.022,inactive: -0.024,inactive: 0.015,inactive: 0.018,inactive: -0.005,inactive: -0.006,inactive: 0.024
PIN1 (UniProt Q13526),inactive: 0.023,inactive: 0.008,inactive: -0.02,inactive: 0.028,inactive: -0.007,inactive: -0.006,inactive: -0.035,inactive: 0.014,inactive: -0.022,inactive: -0.053,inactive: -0.027,inactive: 0.008,inactive: -0.003,inactive: 0.02,inactive: -0.026,inactive: -0.014,inactive: -0.019,inactive: -0.001,inactive: 0.009,inactive: -0.02
PHKA2 (UniProt P46019),inactive: -0.065,inactive: 0.053,inactive: 0.072,inactive: 0.059,inactive: 0.021,inactive: 0.024,inactive: 0.009,inactive: -0.084,inactive: 0.002,inactive: -0.058,inactive: 0.064,inactive: -0.084,active: 0.265,inactive: -0.027,inactive: 0.032,inactive: -0.008,inactive: 0.018,inactive: -0.008,inactive: 0.06,inactive: -0.03
PKLR (UniProt P30613),inactive: 0.016,inactive: 0.013,inactive: -0.024,inactive: 0.045,inactive: 0.007,inactive: -0.027,inactive: -0.018,inactive: 0.027,inactive: -0.012,inactive: -0.015,inactive: -0.01,inactive: 0.019,inactive: -0.005,inactive: -0.024,inactive: 0.085,inactive: 0.007,inactive: -0.101,inactive: -0.003,inactive: 0.01,inactive: 0.047
PIKFYVE (UniProt Q9Y2I7),inactive: -0.022,inactive: 0.042,inactive: 0.26,inactive: -0.036,inactive: -0.047,inactive: 0.04,inactive: -0.056,inactive: 0.038,inactive: 0.054,inactive: 0.038,inactive: -0.049,inactive: -0.126,inactive: 0.032,inactive: 0.078,inactive: -0.031,inactive: 0.044,inactive: 0.088,inactive: 0.031,inactive: 0.004,inactive: -0.005
PIP4K2C (UniProt Q8TBX8),inactive: 0.039,inactive: -0.028,inactive: -0.045,active: 0.463,inactive: 0.206,inactive: 0.103,inactive: -0.114,inactive: 0.225,inactive: -0.01,inactive: -0.019,active: 0.47,inactive: 0.022,inactive: 0.125,inactive: 0.092,inactive: -0.07,inactive: 0.139,inactive: -0.085,inactive: 0.013,inactive: 0.104,inactive: 0.083
PIP4K2A (UniProt P48426),inactive: 0,inactive: -0.009,inactive: -0.051,active: 0.31,inactive: 0.087,inactive: 0.073,inactive: -0.035,inactive: 0.155,inactive: 0.036,inactive: 0.02,active: 0.279,inactive: -0.048,inactive: 0.006,inactive: 0.065,inactive: -0.035,inactive: 0.141,inactive: -0.071,inactive: 0.01,inactive: 0.005,inactive: 0.037
PLEKHF1 (UniProt Q96S99),inactive: 0.019,inactive: -0.008,inactive: 0.004,inactive: -0.004,inactive: 0.002,inactive: 0.059,inactive: -0.062,inactive: 0.018,inactive: 0.007,inactive: -0.028,inactive: -0.001,inactive: -0.051,inactive: 0.058,inactive: -0.007,inactive: -0.033,inactive: -0.025,inactive: -0.009,inactive: -0.008,inactive: -0.001,inactive: 0.007
PKM (UniProt P14618),inactive: 0.019,inactive: 0.002,inactive: -0.025,inactive: 0.032,inactive: -0.02,inactive: -0.04,inactive: -0.082,inactive: 0.029,inactive: -0.018,inactive: -0.048,inactive: -0.028,inactive: 0.012,inactive: -0.016,inactive: -0.009,inactive: 0.129,inactive: 0.013,inactive: -0.017,inactive: 0.005,inactive: 0.01,inactive: -0.005
PHRF1 (UniProt Q9P1Y6),inactive: 0.062,inactive: 0.1,inactive: 0.006,inactive: 0.077,inactive: -0.038,inactive: 0.014,inactive: 0.126,inactive: -0.07,inactive: -0.019,inactive: -0.008,inactive: -0.059,inactive: 0.023,inactive: 0.088,inactive: -0.024,inactive: 0.016,inactive: 0.078,inactive: 0.017,inactive: 0.023,inactive: 0.006,inactive: 0.055
PLEC (UniProt Q15149),inactive: 0.013,inactive: 0.002,inactive: 0.021,inactive: -0.022,inactive: -0.024,inactive: 0.011,inactive: -0.042,inactive: -0.008,inactive: 0.15,inactive: 0,inactive: -0.007,inactive: -0.065,inactive: 0.003,inactive: -0.026,inactive: -0.084,inactive: -0.003,inactive: -0.002,inactive: 0.003,inactive: -0.007,inactive: 0

# Some of the entries so far, bar-delimited.
Target | log2 fold change (vemurafenib) | log2 fold change [1] | log2 fold change (barasertib) | log2 fold change [2] | log2 fold change (volasertib) | log2 fold change [3] | log2 fold change [4] | log2 fold change [5] | log2 fold change (saracatinib) | log2 fold change (sotrastaurin) | log2 fold change (alvocidib) | log2 fold change (Tubastatin A) | log2 fold change [6] | log2 fold change (defactinib) | log2 fold change [7] | log2 fold change (encorafenib) | log2 fold change [8] | log2 fold change (alisertib) | log2 fold change [9] | log2 fold change (gefitinib)
PIP4K2C (UniProt Q8TBX8) | inactive: 0.039 | inactive: -0.028 | inactive: -0.045 | active: 0.463 | inactive: 0.206 | inactive: 0.103 | inactive: -0.114 | inactive: 0.225 | inactive: -0.01 | inactive: -0.019 | active: 0.47 | inactive: 0.022 | inactive: 0.125 | inactive: 0.092 | inactive: -0.07 | inactive: 0.139 | inactive: -0.085 | inactive: 0.013 | inactive: 0.104 | inactive: 0.083
PIP4K2A (UniProt P48426) | inactive: 0 | inactive: -0.009 | inactive: -0.051 | active: 0.31 | inactive: 0.087 | inactive: 0.073 | inactive: -0.035 | inactive: 0.155 | inactive: 0.036 | inactive: 0.02 | active: 0.279 | inactive: -0.048 | inactive: 0.006 | inactive: 0.065 | inactive: -0.035 | inactive: 0.141 | inactive: -0.071 | inactive: 0.01 | inactive: 0.005 | inactive: 0.037
PLEKHF1 (UniProt Q96S99) | inactive: 0.019 | inactive: -0.008 | inactive: 0.004 | inactive: -0.004 | inactive: 0.002 | inactive: 0.059 | inactive: -0.062 | inactive: 0.018 | inactive: 0.007 | inactive: -0.028 | inactive: -0.001 | inactive: -0.051 | inactive: 0.058 | inactive: -0.007 | inactive: -0.033 | inactive: -0.025 | inactive: -0.009 | inactive: -0.008 | inactive: -0.001 | inactive: 0.007
PKM (UniProt P14618) | inactive: 0.019 | inactive: 0.002 | inactive: -0.025 | inactive: 0.032 | inactive: -0.02 | inactive: -0.04 | inactive: -0.082 | inactive: 0.029 | inactive: -0.018 | inactive: -0.048 | inactive: -0.028 | inactive: 0.012 | inactive: -0.016 | inactive: -0.009 | inactive: 0.129 | inactive: 0.013 | inactive: -0.017 | inactive: 0.005 | inactive: 0.01 | inactive: -0.005

# — the supplement of paper PMC10849652
